Assay results: article PMC3769348, “Secreted and Transmembrane 1A Is a Novel Co-Stimulatory Ligand” (PLoS ONE, 2013)
Results are given in words; binding and its absence hold for the method and conditions named. Some binding calls cover weakened binding; strength is not graded here. Sequences can lack the tags named with a protein.

T1: GITR (TNFRSF18), endogenous in activated CD7-/- mouse T cells (mouse (endogenous in C57BL/6 CD7-/- splenocytes and CD4+ T cells)) (UniProt O35714)
T1 sequence: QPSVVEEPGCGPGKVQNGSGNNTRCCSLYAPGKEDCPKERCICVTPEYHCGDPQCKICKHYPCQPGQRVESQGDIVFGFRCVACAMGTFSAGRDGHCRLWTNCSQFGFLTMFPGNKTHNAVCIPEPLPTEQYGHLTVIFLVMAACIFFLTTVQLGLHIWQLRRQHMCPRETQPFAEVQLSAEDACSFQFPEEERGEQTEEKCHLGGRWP


Tests used:
[1] = target: T1, GITR (TNFRSF18), endogenous in activated CD7-/- mouse T cells (mouse (endogenous in C57BL/6 CD7-/- splenocytes and CD4+ T cells)); experiment: flow cytometry on cells; APC-conjugated SECTM1A-Fc on anti-CD3 and anti-CD28 activated CD7-/- CD4+ T cells pre-incubated for 1 hour with GITRL-Fc or hIL7R-Fc (negative control), or with rat anti-GITR (YGITR-765) or rat IgG2b isotype control; only the binder purified
[2] = target: SECTM1B-Fc fusion protein (extracellular domain of murine SECTM1B fused to aglycosyl human IgG1 Fc) (mouse) (UniProt Q9JL59); experiment: SPR; BIAcore 3000, 25°C, CM5 chip; Fc fusion proteins held on separate flow cells by mouse anti-human IgG (SBH2) on amine-coupled rabbit anti-mouse antibody; Fc fusion proteins at 25 µM injected in HEPES-buffered saline pH 7.4 at 5 µl per minute; both purified

binding [1]	binding [2]	Binder
binds	–	GITRL-Fc fusion protein (Fc fusion, UniProt Q7TS55 42-173) TSLKPTAIESCMVKFELSSSKWHMTSPKPHCVNTTSDGKLKILQSGTYLIYGQVIPVDKKYIKDNAPFVVQIYKKNDVLQTLMNDFQILPIGGVYELHAGDNIYLKFNSKDHIQKTNTYWGIILMPDLPFIS
–	no binding (tested: 25 µM)	SECTM1B-Fc fusion protein (extracellular domain of murine SECTM1B fused to aglycosyl human IgG1 Fc) (Fc fusion, UniProt Q9JL59 29-160, N-glycosylated) HNDVWDEPCCTEHEVSVNRGSRVVMACNISNNLRDVTIELVTSEKTSIIFNHTPPGNYSKDSWQLHIQGVQAQLVITDAQDKHSGNYSWKLHGFQAEFKNFNLTVNAADRQKTEDLPVTKVPDKPPTAVRTE
